Measurements as given in the supplement of paper PMC10338343.
± gives the standard deviation. This is a selection; strong and weak results do not stand in their true shares. Many of these values have a large error. Some of the results follow.

Tests used:
[1] = test system: MILI (PIWIL2) piRISC loaded with L1MC piRNA (26 nt); assay: pre-steady-state target cleavage rate (min^-1); higher = faster piRNA-guided slicing of the target; conditions: guide: L1MC piRNA 5'p-UAACUAAAUACUAUGCAAGCUGUAGG
Outline: (§1)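 Reactions were run for 0–8 or 0–960 min at 33 °C in HEPES–potassium acetate buffer, combining 1 nM active affinity-purified piRISC with one synthetic guide, […] transcribed, DNA-blocked target RNA library and, in some cases, 500 nM GTSF1 partner protein. Sequencing of uncleaved targets followed, with normalisation to depth and to weakly complementary targets. Three trials were pooled, k3 was capped at 0.0001 min^-1, and the pre-steady-state cleavage rate was taken from a burst-and-steady-state fit.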

[2] = test system: EfPiwi piRISC loaded with L1MC piRNA (26 nt); assay: pre-steady-state target cleavage rate (min^-1); guide: L1MC piRNA 5'p-UAACUAAAUACUAUGCAAGCUGUAGG; higher = faster piRNA-guided slicing of the target
Outline: as §1

[3] = test system: MIWI (PIWIL1) piRISC loaded with L1MC piRNA (30 nt); assay: pre-steady-state target cleavage rate (min^-1); MIWI and MILI are mouse PIWI proteins and EfPiwi is from a freshwater sponge; tags in brackets are library labels; higher = faster piRNA-guided slicing of the target; conditions: guide: L1MC piRNA 5'p-UAACUAAAUACUAUGCAAGCUGUAGGUCCU; auxiliary factor: none (no GTSF1)
Outline: as §1

[4] = auxiliary factor: 500 nM mouse GTSF1
[5] = auxiliary factor: none (no GTSF1)
[6] = auxiliary factor: 500 nM Ephydatia muelleri Gtsf1
[7] = auxiliary factor: none (no Gtsf1)

Sequence	pre-steady-state target cleavage rate [1, 4]	pre-steady-state target cleavage rate [1, 5]	pre-steady-state target cleavage rate [2, 6]	pre-steady-state target cleavage rate [2, 7]	pre-steady-state target cleavage rate [3]
UCCUGGAUGUGCUUGCAUAGUAUUAUCAAA	0.00236 ± 0.0052	0.000439 ± 0.011	0.00049 ± 0.0046	–	–
UCCUGGAUGUGCUUGCAAAGUUUUUAGUUA	0.00595 ± 0.0038	0.0065 ± 0.0023	0.000426 ± 0.0088	–	–
UCCUGGUUGUGCUUGCAUAGUAUUUACAAA	0.00786 ± 0.0048	0.00124 ± 0.0058	0.002 ± 0.0029	–	–
UCCUCCUACAGCUUGCAUAGAAUUUAGAUA	0.0558 ± 0.014	0.00111 ± 0.004	–	0.000291 ± 0.013	–
UCCUGGAUGUCCUCGCAUAGUAUUUAGUUA	0.0711 ± 0.01	0.00777 ± 0.0022	0.00388 ± 0.0033	–	–
UCCUCCUUCAGCUUGCAUAGUAAUUAGUUA	0.211 ± 0.021	0.00503 ± 0.002	0.0731 ± 0.025	–	–
UCCUGGAUGAGUCUUGCAUAGUAUUUAGUUA	0.105 ± 0.016	0.0093 ± 0.0029	–	0.000543 ± 0.018	–
UCCUGGAUGUCCUUGCAUAGUAUUUAGUAA	0.117 ± 0.019	0.00376 ± 0.0019	0.00321 ± 0.0025	–	–
UCCUCCUACAGCAAGCAUAGUAUUUAGUUA	0.281 ± 0.014	0.00806 ± 0.0019	0.0493 ± 0.018	–	–
UCCUGGAUGAGCUUGCAUUGAAUUUAGUUA	0.00697 ± 0.0027	0.00139 ± 0.0045	0.000994 ± 0.0058	–	–
UCCUGCUACAGCUUGCAUUGUUUUUAGUUA	0.0212 ± 0.007	0.00289 ± 0.0028	0.00145 ± 0.0031	–	–
UCCUGGAUGUCGAUGCAUAGUAUUUAGCUUA	0.0496 ± 0.014	0.00233 ± 0.0031	0.00156 ± 0.0047	–	–
UCCUGGAACACGAUGCAUAGUAUUUAGUUA	0.14 ± 0.017	0.00495 ± 0.0023	–	0.000403 ± 0.02	–
UCCUGCUACAAGCUUGCAUAGUAUUUAGUUA	0.157 ± 0.015	0.00805 ± 0.002	–	0.00064 ± 0.0085	–
UCCUGCUACAGCUUGUAUAGUAUUUAGUUA	0.255 ± 0.015	0.00693 ± 0.0021	0.029 ± 0.0067	–	–
UCCUGGAUCACUUGCAUAGUAUUUAGUUA	0.214 ± 0.018	0.0066 ± 0.0022	0.0567 ± 0.014	–	–
UCCUCCUACAGCUUGCAUAGUAUUUUGUUA	0.177 ± 0.023	0.0036 ± 0.0022	0.00791 ± 0.0033	–	–
UCCUGGAUGUGCUUACAUAGUAUUUAGUUA	0.122 ± 0.015	0.0117 ± 0.0028	0.0113 ± 0.0041	–	–
UCCUGGAUGAGCAUGCAUACUAUUUAGUUA	0.0556 ± 0.011	0.00656 ± 0.0024	0.00175 ± 0.0023	–	–
UCCUGGAUGUCGUUGCAUAGUAUAUACUUA	0.000422 ± 0.016	0.00013 ± 0.042	0.000295 ± 0.021	–	–
UCCUGCAACAGCUUGCAUAGUUUUUAGUUA	0.0613 ± 0.0099	0.00354 ± 0.0029	0.00727 ± 0.0019	–	–
UCCUGGAUCAGCUUGCAUAGUAUUUUCAAA	0.0677 ± 0.013	0.00115 ± 0.0051	0.00307 ± 0.0027	–	–
UCCUCCUACAGCUUGCUUAGUAAUUAGUUA	0.24 ± 0.015	0.00424 ± 0.0021	0.0113 ± 0.0049	–	–
UCCUCCUACUGCUUGCAUACUAUUUAGUUA	0.0694 ± 0.011	0.00355 ± 0.0019	0.0106 ± 0.0044	–	–
UCCUGGAACUGCUUGCAUAGUAUUAAGUUA	0.173 ± 0.022	0.00346 ± 0.0024	0.00242 ± 0.0029	–	–
UCCUGGAUGUCGAUGGAUAGUAUUUUGUUA	0.00767 ± 0.0043	0.000396 ± 0.017	0.000926 ± 0.0076	–	0.00033 ± 0.023
UCCUGGUACAGCAAGCAUAGUAUUUAGUUA	0.232 ± 0.018	0.00852 ± 0.0027	–	0.000467 ± 0.016	–

Already shown: entries from further up.
Sequence	pre-steady-state target cleavage rate [1, 4]	pre-steady-state target cleavage rate [1, 5]	pre-steady-state target cleavage rate [2, 6]	pre-steady-state target cleavage rate [2, 7]	pre-steady-state target cleavage rate [3]
UCCUGGAUCACUUGCAUAGUAUUUAGUUA	0.214 ± 0.018	0.0066 ± 0.0022	0.0567 ± 0.014	–	–
UCCUCCUACAGCUUGCAUAGUAUUUUGUUA	0.177 ± 0.023	0.0036 ± 0.0022	0.00791 ± 0.0033	–	–
